For this assay, the target named is dynein axonemal heavy chain 9 (DNAH9) (mouse (endogenous in lung tissue)). The assay is described as follows: co-IP; proteins extracted from mouse lung tissues, 3 ug target antibody or rabbit IgG overnight at 4 C, Protein A/G magnetic beads 2 h at RT, washed thrice with PBS, immunoblot.

No constants are given. Whether binding was seen depends on the method and setting. Binding seen in cells or lysates may run through a third protein. A result given as binding can be weak or reduced; the word gives no strength.

B1: growth arrest-specific 8 (GAS8) (protein, UniProt Q60779 1-478)
chain: MAPKKKGKKGKAKGTAIVDGVAPEDMTKEQVEEHVARIREELDREREERNYFQLERDKIHTFWEITRRQLEEKKAELRNKDREMEEAEERHQVEIKVYKQKVKHLLYEHQNNLAEVKAEGTVVMKLAQKEHRTQEGALRKDMRVLKVELKEQELANEVVIKNLCLKQAEEITKMRNDFERQVREIEAKYDKKMKMLRDELDLRRKTEIHEVEERKNGQISTLMQRHEEAFTDIKNYYNDITLNNLALINSLKEQMEDMRKKEEHMEREMAEVTLQNRRLADPLQKAKDEMNEMQKRLGNHERDKQILVCTKARLKVAERELKDLKWEHEVLEQRFIKVQQEREELYRKFADAIQEVQQKTGFKNLLLERKLQALNAAVEKREVQFNEVLAASNLDPTALTLVSRKLEDVLESKNTTIKDLQYELARVCKAHNDLLRTYEAKLLAFGIPLDNVGFKPLETAVIGQTLGQGPAGLVGAPT
As to B1, the binding result was “binds”.
